# Assay results reported in the supplement of paper PMC11732987, “Enantioselective OTUD7B fragment discovery through chemoproteomics screening and high-throughput optimisation” (Communications Chemistry, 2025).
# Sequences of proteins named here, by UniProt entry; tags and fusion partners are left off. A change or cut given only in a name is not applied to a line headed by its entry. Residues count along the entry.
# UniProt Q8TDX7, 249-268: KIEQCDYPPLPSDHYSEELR
# UniProt P52849: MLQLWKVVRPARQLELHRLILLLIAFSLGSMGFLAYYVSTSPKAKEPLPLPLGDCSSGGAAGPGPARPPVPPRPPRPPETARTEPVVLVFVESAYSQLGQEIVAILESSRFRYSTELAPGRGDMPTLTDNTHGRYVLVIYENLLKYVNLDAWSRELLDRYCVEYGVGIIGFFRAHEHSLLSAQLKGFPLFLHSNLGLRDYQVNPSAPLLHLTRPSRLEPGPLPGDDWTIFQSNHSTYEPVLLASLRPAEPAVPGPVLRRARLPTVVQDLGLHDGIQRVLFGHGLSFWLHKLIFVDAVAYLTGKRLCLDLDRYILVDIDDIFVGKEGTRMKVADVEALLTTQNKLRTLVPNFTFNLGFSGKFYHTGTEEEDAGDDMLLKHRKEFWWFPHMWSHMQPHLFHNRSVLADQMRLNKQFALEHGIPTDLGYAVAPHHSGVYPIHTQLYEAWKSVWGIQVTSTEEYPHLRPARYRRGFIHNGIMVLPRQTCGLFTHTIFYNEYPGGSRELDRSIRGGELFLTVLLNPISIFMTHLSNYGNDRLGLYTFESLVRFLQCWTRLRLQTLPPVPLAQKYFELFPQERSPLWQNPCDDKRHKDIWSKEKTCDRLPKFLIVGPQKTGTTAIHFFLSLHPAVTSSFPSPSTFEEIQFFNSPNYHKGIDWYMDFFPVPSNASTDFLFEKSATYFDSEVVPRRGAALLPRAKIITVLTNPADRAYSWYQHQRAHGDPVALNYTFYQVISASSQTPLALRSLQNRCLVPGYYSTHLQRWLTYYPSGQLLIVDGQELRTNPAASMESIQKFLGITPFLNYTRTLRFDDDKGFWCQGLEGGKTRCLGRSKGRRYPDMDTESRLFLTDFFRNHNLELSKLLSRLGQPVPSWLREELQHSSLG
# UniProt O00567, 454-480: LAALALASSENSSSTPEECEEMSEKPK
# UniProt P30414: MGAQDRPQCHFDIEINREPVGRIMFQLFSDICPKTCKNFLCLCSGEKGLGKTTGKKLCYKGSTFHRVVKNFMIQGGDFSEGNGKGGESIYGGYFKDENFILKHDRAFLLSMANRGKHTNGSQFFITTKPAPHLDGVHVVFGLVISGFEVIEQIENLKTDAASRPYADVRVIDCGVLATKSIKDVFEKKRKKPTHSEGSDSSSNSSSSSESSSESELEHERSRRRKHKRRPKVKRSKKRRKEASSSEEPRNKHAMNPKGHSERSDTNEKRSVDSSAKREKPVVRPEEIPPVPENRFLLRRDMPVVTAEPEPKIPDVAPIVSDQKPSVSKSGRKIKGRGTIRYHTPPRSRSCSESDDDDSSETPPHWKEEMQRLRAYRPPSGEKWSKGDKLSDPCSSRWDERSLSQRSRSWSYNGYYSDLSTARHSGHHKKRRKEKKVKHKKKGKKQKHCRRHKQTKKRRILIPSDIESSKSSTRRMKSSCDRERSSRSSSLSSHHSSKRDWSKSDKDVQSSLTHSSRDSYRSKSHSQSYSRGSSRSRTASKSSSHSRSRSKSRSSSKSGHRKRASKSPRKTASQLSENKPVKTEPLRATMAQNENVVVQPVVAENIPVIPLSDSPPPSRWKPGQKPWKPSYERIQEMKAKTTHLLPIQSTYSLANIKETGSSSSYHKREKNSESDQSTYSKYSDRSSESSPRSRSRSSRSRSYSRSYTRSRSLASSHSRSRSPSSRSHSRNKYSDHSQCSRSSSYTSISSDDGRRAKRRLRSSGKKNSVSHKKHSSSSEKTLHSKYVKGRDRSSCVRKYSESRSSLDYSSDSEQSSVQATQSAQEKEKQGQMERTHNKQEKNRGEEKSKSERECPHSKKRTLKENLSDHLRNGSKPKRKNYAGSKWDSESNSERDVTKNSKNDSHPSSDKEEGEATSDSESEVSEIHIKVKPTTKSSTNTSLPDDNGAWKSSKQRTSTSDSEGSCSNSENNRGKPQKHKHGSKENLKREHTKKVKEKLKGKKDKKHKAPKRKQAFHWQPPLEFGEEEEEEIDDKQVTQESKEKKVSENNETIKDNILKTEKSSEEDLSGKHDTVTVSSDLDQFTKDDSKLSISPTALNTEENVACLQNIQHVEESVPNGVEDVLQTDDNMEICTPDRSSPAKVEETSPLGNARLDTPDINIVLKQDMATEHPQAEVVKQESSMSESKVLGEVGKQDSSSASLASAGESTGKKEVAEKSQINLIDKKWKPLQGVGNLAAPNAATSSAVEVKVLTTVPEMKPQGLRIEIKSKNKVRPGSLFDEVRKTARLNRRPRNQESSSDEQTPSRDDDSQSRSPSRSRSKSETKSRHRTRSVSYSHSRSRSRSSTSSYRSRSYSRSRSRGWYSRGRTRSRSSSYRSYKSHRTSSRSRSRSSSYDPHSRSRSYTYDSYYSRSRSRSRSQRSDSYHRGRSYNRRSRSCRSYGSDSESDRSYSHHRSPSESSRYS
# UniProt O43920: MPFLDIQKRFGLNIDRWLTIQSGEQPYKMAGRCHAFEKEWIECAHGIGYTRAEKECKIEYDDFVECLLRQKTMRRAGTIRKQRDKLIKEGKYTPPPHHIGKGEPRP
# UniProt Q9BSC4: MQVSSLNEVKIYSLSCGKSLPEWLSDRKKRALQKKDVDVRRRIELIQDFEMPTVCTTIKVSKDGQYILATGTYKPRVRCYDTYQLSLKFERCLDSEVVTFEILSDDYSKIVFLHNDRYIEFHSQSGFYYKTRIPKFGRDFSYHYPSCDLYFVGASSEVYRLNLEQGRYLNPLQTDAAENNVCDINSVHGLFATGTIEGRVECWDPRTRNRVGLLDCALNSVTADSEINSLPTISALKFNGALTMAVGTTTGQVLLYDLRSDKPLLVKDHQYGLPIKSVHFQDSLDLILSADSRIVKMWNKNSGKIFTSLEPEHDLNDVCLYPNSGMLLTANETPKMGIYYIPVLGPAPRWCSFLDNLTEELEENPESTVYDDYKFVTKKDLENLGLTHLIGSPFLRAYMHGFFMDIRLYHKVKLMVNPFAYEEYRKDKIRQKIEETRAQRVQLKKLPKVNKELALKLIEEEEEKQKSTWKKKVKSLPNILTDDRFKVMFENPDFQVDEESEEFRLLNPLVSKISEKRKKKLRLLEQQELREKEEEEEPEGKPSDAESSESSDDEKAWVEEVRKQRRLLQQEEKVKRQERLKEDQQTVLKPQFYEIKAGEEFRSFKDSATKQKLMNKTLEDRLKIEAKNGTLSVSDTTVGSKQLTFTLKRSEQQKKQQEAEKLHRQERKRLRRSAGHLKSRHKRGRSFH
# UniProt Q9UBB6: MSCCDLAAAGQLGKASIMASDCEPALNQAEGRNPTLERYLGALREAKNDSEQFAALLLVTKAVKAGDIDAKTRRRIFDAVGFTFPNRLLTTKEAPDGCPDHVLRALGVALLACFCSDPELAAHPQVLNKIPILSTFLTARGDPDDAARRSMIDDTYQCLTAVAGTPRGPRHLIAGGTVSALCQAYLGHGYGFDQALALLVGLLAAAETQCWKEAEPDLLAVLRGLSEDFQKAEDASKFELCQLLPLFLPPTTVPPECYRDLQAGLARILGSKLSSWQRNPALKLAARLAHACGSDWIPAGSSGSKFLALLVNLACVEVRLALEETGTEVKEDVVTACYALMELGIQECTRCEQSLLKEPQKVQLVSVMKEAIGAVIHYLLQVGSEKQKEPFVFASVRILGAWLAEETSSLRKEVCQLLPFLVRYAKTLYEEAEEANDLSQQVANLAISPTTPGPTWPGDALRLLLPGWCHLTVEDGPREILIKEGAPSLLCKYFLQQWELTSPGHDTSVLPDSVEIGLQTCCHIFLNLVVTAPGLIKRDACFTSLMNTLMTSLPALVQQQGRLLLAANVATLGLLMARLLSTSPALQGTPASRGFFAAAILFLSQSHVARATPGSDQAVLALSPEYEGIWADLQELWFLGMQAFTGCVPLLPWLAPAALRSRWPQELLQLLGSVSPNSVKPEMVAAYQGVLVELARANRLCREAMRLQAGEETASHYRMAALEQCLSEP
# UniProt O15226: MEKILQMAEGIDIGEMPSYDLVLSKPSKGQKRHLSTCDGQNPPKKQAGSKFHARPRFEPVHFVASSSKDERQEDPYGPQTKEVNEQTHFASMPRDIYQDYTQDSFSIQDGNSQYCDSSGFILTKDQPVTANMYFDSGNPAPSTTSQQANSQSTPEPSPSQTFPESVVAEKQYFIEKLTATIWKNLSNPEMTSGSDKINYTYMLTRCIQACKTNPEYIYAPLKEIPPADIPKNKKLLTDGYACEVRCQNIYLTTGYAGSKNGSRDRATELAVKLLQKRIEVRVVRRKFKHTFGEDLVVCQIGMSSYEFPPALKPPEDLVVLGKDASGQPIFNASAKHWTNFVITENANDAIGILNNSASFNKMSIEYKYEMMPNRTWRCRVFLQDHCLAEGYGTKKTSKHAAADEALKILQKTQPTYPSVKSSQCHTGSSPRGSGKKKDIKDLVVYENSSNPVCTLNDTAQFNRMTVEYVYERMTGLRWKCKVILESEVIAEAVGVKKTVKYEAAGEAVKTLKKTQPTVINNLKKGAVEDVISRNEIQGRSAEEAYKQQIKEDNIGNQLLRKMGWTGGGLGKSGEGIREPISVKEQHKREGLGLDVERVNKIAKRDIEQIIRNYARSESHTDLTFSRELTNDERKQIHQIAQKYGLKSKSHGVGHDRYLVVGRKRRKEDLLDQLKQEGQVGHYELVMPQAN
# UniProt P48681: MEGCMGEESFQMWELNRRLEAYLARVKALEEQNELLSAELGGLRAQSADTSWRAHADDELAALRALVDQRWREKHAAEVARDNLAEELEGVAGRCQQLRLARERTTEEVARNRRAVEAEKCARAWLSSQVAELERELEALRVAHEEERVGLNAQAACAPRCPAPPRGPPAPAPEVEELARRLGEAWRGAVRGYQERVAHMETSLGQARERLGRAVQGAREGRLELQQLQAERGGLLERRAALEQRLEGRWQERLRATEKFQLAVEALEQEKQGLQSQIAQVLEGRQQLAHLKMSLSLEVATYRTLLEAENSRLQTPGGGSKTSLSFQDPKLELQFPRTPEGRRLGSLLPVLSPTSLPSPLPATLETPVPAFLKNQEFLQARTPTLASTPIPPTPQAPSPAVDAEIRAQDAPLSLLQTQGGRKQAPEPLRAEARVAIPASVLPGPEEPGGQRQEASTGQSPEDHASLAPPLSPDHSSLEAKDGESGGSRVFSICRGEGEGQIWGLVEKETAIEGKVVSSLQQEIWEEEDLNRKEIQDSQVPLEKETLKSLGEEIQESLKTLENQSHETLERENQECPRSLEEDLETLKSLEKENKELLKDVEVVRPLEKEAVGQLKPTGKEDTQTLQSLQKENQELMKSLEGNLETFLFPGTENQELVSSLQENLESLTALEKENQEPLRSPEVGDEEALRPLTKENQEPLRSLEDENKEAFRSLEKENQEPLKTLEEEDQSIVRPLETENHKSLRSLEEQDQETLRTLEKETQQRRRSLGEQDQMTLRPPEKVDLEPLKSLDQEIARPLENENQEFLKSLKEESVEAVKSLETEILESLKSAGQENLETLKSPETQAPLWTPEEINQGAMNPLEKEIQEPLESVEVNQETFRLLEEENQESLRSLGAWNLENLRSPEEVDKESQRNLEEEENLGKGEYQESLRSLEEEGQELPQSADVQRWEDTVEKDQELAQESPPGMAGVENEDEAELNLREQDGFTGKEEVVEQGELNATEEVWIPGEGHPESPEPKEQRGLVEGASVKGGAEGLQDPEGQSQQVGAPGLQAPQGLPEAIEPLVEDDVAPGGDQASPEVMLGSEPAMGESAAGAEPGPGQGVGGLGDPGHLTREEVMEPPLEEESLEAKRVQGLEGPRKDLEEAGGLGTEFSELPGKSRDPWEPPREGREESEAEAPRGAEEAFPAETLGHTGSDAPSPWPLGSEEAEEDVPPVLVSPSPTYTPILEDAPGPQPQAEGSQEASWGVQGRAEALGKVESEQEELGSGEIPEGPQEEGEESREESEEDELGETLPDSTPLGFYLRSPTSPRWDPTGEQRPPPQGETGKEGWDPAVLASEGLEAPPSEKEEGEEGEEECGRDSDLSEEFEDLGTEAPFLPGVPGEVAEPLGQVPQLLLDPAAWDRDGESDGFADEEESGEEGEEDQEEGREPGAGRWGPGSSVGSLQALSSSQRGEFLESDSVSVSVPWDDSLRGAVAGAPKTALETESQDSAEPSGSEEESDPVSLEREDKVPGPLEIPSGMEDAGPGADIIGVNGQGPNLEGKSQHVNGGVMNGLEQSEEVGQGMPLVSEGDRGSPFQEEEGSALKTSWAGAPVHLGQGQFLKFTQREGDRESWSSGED
# UniProt Q9NYR9: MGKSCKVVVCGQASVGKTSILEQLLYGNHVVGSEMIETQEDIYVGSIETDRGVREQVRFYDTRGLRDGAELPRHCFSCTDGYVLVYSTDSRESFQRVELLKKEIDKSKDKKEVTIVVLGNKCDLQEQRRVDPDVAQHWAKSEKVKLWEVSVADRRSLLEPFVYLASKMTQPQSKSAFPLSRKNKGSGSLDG
# Some of the results follow. The data scatter; read single values as rough.
# Tests used:
# [1] = compound: ClCC(=O)N[C@@H]1CCCc2ccccc12; experiment: log2 mean competition ratio of IA-DTB cysteine labelling (DMSO/compound) (log2 ratio); higher = stronger cysteine engagement by compound; conditions: treatment time: 4 h, cell line lysate: HEK293T
# Protocol: (§1)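 IA-DTB competitive cysteine chemoproteomics in HEK293T RIPA lysate. Lysates were treated with compound 29 or 30 at 50 or 200 µM for 4 h, then IA-DTB (500 µM, 1 h), trypsin-digested, NeutrAvidin-enriched and analysed by diaPASEF. Competition ratio = intensity DMSO / intensity compound (n=4 treated, n=64 DMSO); binding: mean log2 CR ≥ 1 and p ≤ 0.05 plus QC filters. Target is the cysteine site.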
# [2] = compound: ClCC(=O)N[C@H]1CCCc2ccccc12; experiment: as above; conditions: treatment time: 4 h, cell line lysate: HEK293T
# Protocol: as §1
Target,log2 mean competition ratio ([1]; 50 µM),log2 mean competition ratio ([1]; 200 µM),log2 mean competition ratio ([2]; 50 µM),log2 mean competition ratio ([2]; 200 µM)
NEK4 C664 (UniProt P51957),-0.133,0.17,-0.115,0.0764
NCOA7 C439 (UniProt Q8NI08),–,–,-0.427,0.0952
NEK7 C253 (UniProt Q8TDX7),0.0786,0.0248,0.377,0.0451
NDST2 C585 (UniProt P52849),-0.325,–,-0.676,0.203
NOP56 C472 (UniProt O00567),–,–,0.574,-0.321
NBEA C315 (UniProt Q8NFP9),–,–,0.123,-0.47
NMD3 C55 (UniProt Q96D46),–,–,0.432,0.197
NGLY1 C484 (UniProt Q96IV0),–,–,–,-0.17
NKTR C393 (UniProt P30414),–,–,0.0635,0.35
NOM1 C332 (UniProt Q5C9Z4),–,–,-0.0751,0.0137
NF1 C2808 (UniProt P21359),–,–,0.0812,-0.231
NDUFS5 C66 (UniProt O43920),–,-0.0691,-0.147,-0.205
NOL10 C55 (UniProt Q9BSC4),–,-0.474,-0.277,0.351
NOA1 C364 (UniProt Q8NC60),–,–,0.12,-0.027
NHSL1 C268 (UniProt Q5SYE7),–,–,-0.17,0.229
NCDN C292 (UniProt Q9UBB6),0.118,-0.00768,0.174,-0.154
NCK1 C340 (UniProt P16333),-0.0981,-0.223,0.218,-0.285
NHSL1 C1554 (UniProt Q5SYE7),0.182,-0.135,0.376,-0.0453
NKRF C246 (UniProt O15226),0.41,0.275,0.287,0.436
NKX2-5 C114,–,–,0.505,0.327
NES C157 (UniProt P48681),–,–,0.39,0.0658
NEK9 C506 (UniProt Q8TD19),–,–,-0.0742,0.1
NKTR C964 (UniProt P30414),–,–,-0.0481,-0.209
NKIRAS2 C122 (UniProt Q9NYR9),–,–,-0.228,0.0533
NOP58 C439 (UniProt Q9Y2X3),–,–,0.15,-0.0107

# Quoted at random: 2 entries already listed
Target,log2 mean competition ratio ([1]; 50 µM),log2 mean competition ratio ([1]; 200 µM),log2 mean competition ratio ([2]; 50 µM),log2 mean competition ratio ([2]; 200 µM)
NMD3 C55 (UniProt Q96D46),–,–,0.432,0.197
NOM1 C332 (UniProt Q5C9Z4),–,–,-0.0751,0.0137
